Reference: PubChem BioAssay AID1347076 (National Center for Advancing Translational Sciences (NCATS), 2019)
Out of some 400,000 compounds screened, about 13,000 (3.2%) were called active. Inconclusive means that the source gave no clear call. Such entries were picked first, then a sample of the others. Calls follow the shape of the dose curve; as a rule, active = well fitted cell-killing curve with a large enough effect; inconclusive = small, poorly fitted or top-dose-only effect, or effect the other way; inactive = flat fitted curve, though single readings scatter. Potencies beside an inconclusive call are fits to weak or partial responses and may not hold up.

Test: qHTS assay for MDR1-selective chemotherapeutics: Primary screen using the drug-selected MDR subline cells KB-V1; also: nearly all actives have a fitted effect of over 60% in size
Conditions: KB-V1 MDR cells viability, CellTiter-Glo, 72 h; series mostly up to 46.1 µM
How it was run: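 KB-V1, DMEM (no phenol red) + 10% FBS; cpd pin-transferred, titration series; 72 h, 37 degrees C; CellTiter-Glo, luminescence. Data normalized, curve-fit.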
Potency is read from the fitted curve at half-maximal effect.

| SMILES | Potency |
| --- | --- |
| COc1cccc(NC(=O)CN(C)S(=O)(=O)c2ccc3c(c2)n(C)c(=O)c(=O)n3C)c1 | inconclusive: 20.6 µM [rising, single point] |
| CCOC(=O)Cn1nnnc1CN(Cc1cccs1)Cc1cc2cc(C)cc(C)c2[nH]c1=O | inconclusive: 13 µM [cytotoxic, partial curve, poor fit] |
| Cc1ccccc1-c1ccc2c(c1)O[C@@H](CN(C)C(=O)Nc1ccc(C(F)(F)F)cc1)[C@H](C)CN([C@@H](C)CO)S2(=O)=O | inconclusive: 25.9 µM [cytotoxic, single point] |
| CCCCC[C@@H](C)N1C[C@@H](COCc2ccccc2)Oc2cc(N3CC[C@@H](N(C)C)C3)ccc2S1(=O)=O | active: 20.6 µM |
| CC(=NNC(N)=S)c1ccc2cc3c(cc2c1)OCO3 | active: 0.58 µM |
| COc1cc(NC(=S)N2CCN(S(C)(=O)=O)CC2)cc(OC)c1 | inconclusive: 18.4 µM [rising, single point] |
| Cc1cc(=O)oc(C)c1C(=O)N1CCN(C)CC1 | inconclusive: 18.4 µM [rising, partial curve, poor fit] |
| Clc1ccc(-c2noc3ncnc(N4CCCCC4)c23)cc1 | inactive |
| CCOc1cccc(C(=O)Nc2ccccc2N2CCN(C(=O)C(C)C)CC2)c1 | inconclusive: 18.4 µM [cytotoxic, partial curve, poor fit] |
| CC(=O)Nc1ccc(NC(=O)c2ccc(NC(=O)c3ccccc3)cc2)cc1 | inconclusive: 29.1 µM [rising, single point] |
| Cc1ccc(-c2csc3nc(CN(C)Cc4ccccc4)[nH]c(=O)c23)cc1 | inconclusive: 16.4 µM [cytotoxic, single point] |
| N=c1c2c(n(Cc3ccc(F)cc3)c3c1CCC3)CCC2 | inactive |
| CCOC(=O)c1c[nH]c2c(Cl)ccc(Cl)c2c1=O | inconclusive: 23.1 µM [cytotoxic, partial curve] |
| CCCCCC(=O)N1C[C@@H](n2cc(-c3ccc(F)cc3)nn2)[C@H](O)C[C@@H]1c1ccccc1 | inconclusive: 9.2 µM [rising, partial curve] |
| COCCC(=O)N1CCC(Oc2ccc(C(=O)N3CCCC(COC)C3)cc2)CC1 (stereo not drawn) | inconclusive: 18.4 µM [cytotoxic, partial curve, poor fit] |
| COc1cccc(OC)c1C(=O)OCC(=O)NCc1ccco1 | inactive |
| CCOc1ccc(CCNC(=O)COC(=O)CSc2ccc(C)cc2)cc1OCC | inactive |
| COc1ccccc1NC(=O)C(=O)N/N=C(\C)CC(=O)Nc1ccccc1C(F)(F)F | inactive |
| Nc1nccnc1C(=O)OCC(=O)Nc1cccc(S(=O)(=O)N2CCCCC2)c1 | inconclusive: 11.6 µM [rising, partial curve] |
| Cc1ccccc1Nc1nc2ccccc2s1 | inconclusive: 29.1 µM [cytotoxic, single point] |
| Cc1ccc(C)c(NC(=S)N(CCN(C)C)C(C)c2ccccn2)c1 (stereo not drawn) | inconclusive: 8.2 µM [cytotoxic, partial curve, poor fit] |
| CCOc1cccc(=O)c2c(C)n(CC(=O)c3ccccc3)c(C)c12 | inconclusive: 6.51 µM [cytotoxic, full curve] |

Looked up by compound from above (2):

| SMILES | Potency |
| --- | --- |
| COc1ccccc1NC(=O)C(=O)N/N=C(\C)CC(=O)Nc1ccccc1C(F)(F)F | inactive |
| COc1cccc(OC)c1C(=O)OCC(=O)NCc1ccco1 | inactive |

The results go on:

| SMILES | Potency |
| --- | --- |
| COc1ccc(N(C(=O)c2snc(C(N)=O)c2N)C(C(=O)NC2CCCC2)c2cccs2)cc1OC (stereo not drawn) | inconclusive: 29.1 µM [rising, single point] |
| CCn1nc(C(C)C)cc1C(=O)N1CCCC(CO)(Cc2ccc(F)cc2F)C1 (stereo not drawn) | inconclusive: 0.0073 µM [cytotoxic, full curve, poor fit] |
| CC1=C(C(=O)OC2CCCC2)C(c2ccc(Cl)cc2)CC(=O)N1 (stereo not drawn) | inactive |
| Cc1cc2nc(-c3cccc(Br)c3)c(Cc3cccc(Cl)c3)n2c(C)c1Br | inconclusive: 29.1 µM [rising, single point] |
| O=C1CCCc2c1cc(-c1ccccc1)n2-c1ccccc1 | active: 11.6 µM |
| CCc1c(C(=O)NNC(=S)Nc2ccc(S(=O)(=O)Nc3ncccn3)cc2)csc1C | inconclusive: 29.1 µM [rising, single point] |
| O=C1N(c2ccccc2)C(c2ccc(Cl)cc2)N2CCCN12 (stereo not drawn) | inconclusive: 18.4 µM [cytotoxic, single point] |
| Cc1cc(N)n2ncc(-c3ccc(F)cc3)c2n1 | inactive |
| Cc1ccc2[nH]c(=O)c(CN(Cc3cccs3)C(=S)NCC3CCCO3)cc2c1 (stereo not drawn) | inconclusive: 11.6 µM [cytotoxic, partial curve, poor fit] |
| CCOC(=O)C1=CCN(S(=O)(=O)c2ccc(Cl)cc2)C1c1ccc(C)cc1 (stereo not drawn) | inconclusive: 29.1 µM [cytotoxic, single point] |
| N=c1c2c3c(sc2ncn1CCCO)CCCC3 | inconclusive: 16.4 µM [cytotoxic, single point] |
| COc1cccc(N2C(=O)CSC23C(=O)N(Cc2ccccc2F)c2ccccc23)c1 (stereo not drawn) | inconclusive: 16.4 µM [cytotoxic, partial curve] |
| O=C(O)[C@@H](O)[C@@H](O)[C@H](O)[C@H](O)CO | inconclusive: 16.4 µM [rising, partial curve] |
| CCN1C(=O)[C@H]2[C@@H](c3ccc(C(F)(F)F)cc3)N[C@]3(CCCN(Cc4ccc(OC)cc4)C3=O)[C@H]2C1=O | inactive |
| C/C(=N\Nc1nc(C)cc(-c2ccccc2)n1)c1ccc(F)cc1 | inactive |
| COc1ccccc1-c1cc(C(F)(F)F)nc(NCc2cccs2)n1 | active: 20.6 µM |
| O=C(O)c1cn(-c2ccccc2)nc1-c1ccc(Cl)cc1 | inactive |
| COc1ccccc1N1CC(C(=O)Nc2cccc(C(=O)O)c2)CC1=O (stereo not drawn) | inconclusive: 1.03 µM [cytotoxic, full curve] |
| CCc1nnc(NC(=O)CSc2nc(-c3ccccc3)cc(-c3ccc(OC)cc3)c2C#N)s1 | inactive |
| Cc1nc2c(-c3ccc(F)cc3)c(C)nn2c(C)c1CCC(=O)NCc1cccc(Cl)c1 | inactive |
| Cc1cc(NC(=O)CSc2nc3c(c(=O)n2C)SCC3)no1 | inconclusive: 23.1 µM [cytotoxic, single point] |
